Source: patent US7902363B2, “Diimide-based semiconductor materials and methods of preparing and using the same” (Polyera Corporation, priority 2006, dated 2011)

Tests used:
[1] = Thin-film transistor characterization of drop-casted and vapor-phase deposited semiconductor films; details: vapor-phase deposited film; dielectric SiO2-OTS; Table 5
Procedure: Organic semiconductor thin films were fabricated by vapor deposition and solution phase deposition. Evaporated films were prepared in a Denton DV-502 vacuum deposition apparatus (10^−6-10^−7 Torr) on substrates kept at 25-120° C.
Organic semiconductor films were deposited on the following substrates: n^+-Si-(300 nm)SiO2 (Process Specialties Inc.), ITO, ITO-(100-600 nm) CPB dielectric (Polyera Corporation), PET-Al-(100-600 nm) CPB dielectric (Polyera Corporation). These were rinsed with water, methanol, and acetone before CPB or organic semiconductor film deposition. Silane functionalization of the Si/SiO2 surface was carried out by exposing the silicon-oxide wafers to hexamethyldisilazane (HMDS) and octadecyltrichlorosilane (OTS) vapor at room temperature in a closed container under nitrogen.
The growth rate of the films (0.1-0.4 Å/s) was controlled by adjusting the crucible temperature. A calibrated quartz-crystal microbalance was used to control the growth rate and film thickness. Solution-deposited films were fabricated by drop-casting (semiconductor concentration=0.1-2 mg/mL), spin-coating (semiconductor concentration=1-10 mg/mL, spin rate=500-5000 rpm), gravure/flexo printing (semiconductor concentration=10-130 mg/mL, anilox/printing force=10-500 N, printing speed=0.2-1.5 m/s), and inkjet printing (semiconductor concentration=1-10 mg/mL).
For thin-film transistor device fabrication, top-contact electrodes (500 Å) were deposited by evaporating gold (pressure <10^−5 Torr) on top of the gate (Si, ITO, Al)-dielectric (SiO2, CPB)-organic semiconductor samples. TFT device channel dimensions are 50-500 μm (L) by 0.5-4.0 mm (W). The capacitance of the employed insulators are 4-11 nF/cm^2. Electrical measurements were performed using a home-built coaxial probe station employing a Keithley 6430 subfemtoammeter and Keithley 2400 source meter, operated by a local Labview program and GPIB communication. Triaxial and/or coaxial shielding was incorporated into the Signaton probe station to minimize noise.
(§1) To allow comparison with other organic FETs, mobilities (μ) were calculated by standard field effect transistor equations. In traditional metal-insulator-semiconductor FETs (MISFETs), there is typically a linear and saturated regime in the IDS VS VDS curves at different VG (where IDS is the source-drain saturation current; VDS is the potential between the source and drain, and VG is the gate voltage). At large VDS, the current saturates and is given by: (IDS)sat=(WCi/2L)μ(VG−Vt) (1) where L and W are the device channel length and width, respectively, Ci is the capacitance of the oxide insulator (1×10^−8 F/cm^2 for 300 nm SiO2), and Vt is the threshold voltage.
(§2) Mobilities (μ) were calculated in the saturation regime by rearranging equation 1: μsat=(2IDSL)/[WCi(VG−Vt)^2] (2) where Ci, in this case, was 6·10^−8 F. The threshold voltage (Vt) can be estimated as the x intercept of the linear section of the plot of VG versus (IDS)^1/2 (at VSD=−100 V).
Table 4 summarizes electron mobilities and current Ion:Ioff ratios for representative compounds of the present teachings having been drop-casted and/or vapor-phase deposited to form thin film semiconductors.

[2] = Field effect transistor fabricated by spin-coating from CHCl3; details: spin-coated film from CHCl3; dielectric SiO2-OTS
Procedure: as §1, §2
The representative compound (which may be a mixture of regioisomers) (4-8 mg) was dissolved in CHCl3 (0.5-2 mL) and the solution was spin-coated (1500 rpm) on an OTS-treated Si—SiO2 substrate. The film was then annealed at 80-120° C. in a vacuum-oven for 30 min-5 h. The FET device structure was completed by evaporation of the Au source/drain contacts.
FIG. 16A is a representative transfer plot measured in air for a spin-coated film from chloroform of a compound of the present teachings (PDI8-CN2). FIG. 16B is a representative transfer plot measured in air for a spin-coated film from chloroform of a compound of the present teachings (PDI2EH-CN2).
Table 5 summarizes electron mobilities and current Ion:Ioff ratios spin-coated films of representative PDI—CN2 core compounds of the present teachings.

Row | SMILES | log(Ion:Ioff), Vapor-phase [1] | μ (cm^2/Vs) electron mobility, Vapor-phase [1] | log(Ion:Ioff), Spin-coating [2] | μ (cm^2/Vs) electron mobility, Spin-coating [2]
1 | CCCCC(C)CN1C(=O)c2ccc3c4c(C#N)cc5c6c(ccc(c7c(C#N)cc(c2c37)C1=O)c64)C(=O)N(CC(C)CCCC)C5=O (stereo not drawn) [PDI2MH-CN2, N,N′-bis(2-methylhexyl)-1,7-dicyanoperylene-3,4:9,10-bis(dicarboxiamide)] | 6-7 | 0.1-0.2 cm^2/Vs | 6-7 | 0.1-0.2 cm^2/Vs
2 | CCCCCCCCN1C(=O)c2ccc3c4c(C#N)cc5c6c(ccc(c7c(C#N)cc(c2c37)C1=O)c64)C(=O)N(CCCCCCCC)C5=O [PDI8-CN2, N,N′-bis(4-n-octyl)-1,7-dicyanoperylene-3,4:9,10-bis(dicarboxiamide), reference compound] | 4-5 | 0.1-0.2 cm^2/Vs | 2-4 | 10^−5-10^−3 cm^2/Vs
3 | CCCCC(CC)CN1C(=O)c2ccc3c4c(C#N)cc5c6c(ccc(c7c(C#N)cc(c2c37)C1=O)c64)C(=O)N(CC(CC)CCCC)C5=O (stereo not drawn) [PDI2EH-CN2, N,N′-bis(2-ethylhexyl)-1,7-dicyanoperylene-3,4:9,10-bis(dicarboxiamide)] | 6-8 | 0.1-0.3 cm^2/Vs | 6-7 | 0.2-0.3 cm^2/Vs
